# Literature values as cited in publication PMC10820479, “An Improved In Vitro Blood-Brain Barrier Model for the Evaluation of Drug Permeability Using Transwell with Shear Stress” (Pharmaceutics, 2023).
# Settings: monkey; unbound plasma-CSF partition coefficient; cited from earlier work
compound,measurement,value
"CC(C)NCC(O)COc1ccc(CC(N)=O)cc1 (stereo not shown) [Atenolol, atenolol]","Kp,uu,CSF",0.331 (monkey) ^3
